In assay [1] the target is STAT3 (mouse (endogenous in p185BCR-ABL-transformed murine cells)) (UniProt P42227). Briefly: co-IP; anti-STAT3 or anti-c-JUN immunoprecipitation from cell extracts of p185BCR-ABL-transformed cells (Stat3Δ/Δ or c-JunΔ/Δ, Cdk6-/-, Cdk6+/+, Cdk6+/++Cdk6), immunoblotted for the bait and CDK6; CDK4 in Figure S7A.
Assay [2] concerns the target c-JUN (mouse (endogenous in p185BCR-ABL-transformed murine cells)) (UniProt P05627). Described as above.

Protein sequences, listed by entry. Tags and fused reporters are not part of them.
UniProt P42227: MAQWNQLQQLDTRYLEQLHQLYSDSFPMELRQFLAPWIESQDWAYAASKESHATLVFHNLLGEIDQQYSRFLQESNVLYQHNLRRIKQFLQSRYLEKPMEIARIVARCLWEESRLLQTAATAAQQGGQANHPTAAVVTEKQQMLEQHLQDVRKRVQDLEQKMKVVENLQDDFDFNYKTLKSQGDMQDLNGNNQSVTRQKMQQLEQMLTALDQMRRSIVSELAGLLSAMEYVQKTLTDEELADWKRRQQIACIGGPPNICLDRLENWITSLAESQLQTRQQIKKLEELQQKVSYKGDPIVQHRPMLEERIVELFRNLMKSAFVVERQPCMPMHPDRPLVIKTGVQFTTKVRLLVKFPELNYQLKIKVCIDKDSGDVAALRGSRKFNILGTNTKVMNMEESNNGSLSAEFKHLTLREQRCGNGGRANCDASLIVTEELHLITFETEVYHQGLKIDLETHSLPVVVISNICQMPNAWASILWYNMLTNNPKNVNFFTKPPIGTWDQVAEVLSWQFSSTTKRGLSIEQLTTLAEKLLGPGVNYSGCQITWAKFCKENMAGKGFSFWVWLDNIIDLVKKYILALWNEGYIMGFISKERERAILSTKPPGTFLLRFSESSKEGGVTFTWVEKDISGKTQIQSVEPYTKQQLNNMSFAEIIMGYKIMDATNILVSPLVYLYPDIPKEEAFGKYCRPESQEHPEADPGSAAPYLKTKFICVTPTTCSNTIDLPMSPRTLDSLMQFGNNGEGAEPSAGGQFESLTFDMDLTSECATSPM
UniProt P05627: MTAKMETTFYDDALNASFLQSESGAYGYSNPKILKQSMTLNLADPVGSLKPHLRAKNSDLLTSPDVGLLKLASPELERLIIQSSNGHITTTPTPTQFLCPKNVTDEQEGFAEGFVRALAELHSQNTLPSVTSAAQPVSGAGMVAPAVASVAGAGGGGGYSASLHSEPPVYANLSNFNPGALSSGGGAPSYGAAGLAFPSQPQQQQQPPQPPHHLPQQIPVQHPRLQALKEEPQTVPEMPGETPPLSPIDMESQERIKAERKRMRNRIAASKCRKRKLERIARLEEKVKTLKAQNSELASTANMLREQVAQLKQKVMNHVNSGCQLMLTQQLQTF
UniProt Q64261: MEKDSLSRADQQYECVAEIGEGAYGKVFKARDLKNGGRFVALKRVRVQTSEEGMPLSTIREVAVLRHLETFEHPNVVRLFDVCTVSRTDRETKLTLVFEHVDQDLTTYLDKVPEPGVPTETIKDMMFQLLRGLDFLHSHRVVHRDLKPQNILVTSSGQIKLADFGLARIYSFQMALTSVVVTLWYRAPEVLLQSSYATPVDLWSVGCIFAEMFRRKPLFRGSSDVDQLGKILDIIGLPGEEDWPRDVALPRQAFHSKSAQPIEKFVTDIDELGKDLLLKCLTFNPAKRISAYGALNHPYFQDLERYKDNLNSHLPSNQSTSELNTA

Results are given in words; binding and its absence hold for the method and conditions named. Binding seen in cells or lysates may run through a third protein. Some binding calls cover weakened binding; strength is not graded here.

Data on two molecules can be found in article PMC3743049.

As for CDK6 (from UniProt Q64261 1-326), the binding entry in assay [1] and in assay [2] was “binds” each time.

B1: CDK4 (protein, UniProt P30285 1-303)
chain: MAATRYEPVAEIGVGAYGTVYKARDPHSGHFVALKSVRVPNGGAAGGGLPVSTVREVALLRRLEAFEHPNVVRLMDVCATSRTDRDIKVTLVFEHIDQDLRTYLDKAPPPGLPVETIKDLMRQFLSGLDFLHANCIVHRDLKPENILVTSNGTVKLADFGLARIYSYQMALTPVVVTLWYRAPEVLLQSTYATPVDMWSVGCIFAEMFRRKPLFCGNSEADQLGKIFDLIGLPPEDDWPREVSLPRGAFAPRGPRPVQSVVPEMEESGAQLLLEMLTFNPHKRISAFRALQHSYLHKEESDAE
In the case of B1, the binding result in assay [1] and in assay [2] was “no binding” each time.
